This is one part of the list. Many values rest on one well or one pass, so single values are uncertain.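 Imaging used 1,536-well plates; nuclei positive for cleaved PARP by antibody were divided by total DNA-stained nuclei to yield the apoptosis fraction. Doses for screening kept most cells viable, and cell lines differ markedly in resting and induced cleaved-PARP levels.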
Assays:
Experiment in all cases: cleaved PARP positive nuclei fraction relative to DMSO control; melanoma cells; higher = more apoptosis
Conditions in all cases: library dose: low library concentration; 72 h
[1] = tested on: 501Mel
[2] = tested on: A101D
[3] = tested on: A2058
[4] = tested on: A375
[5] = tested on: C32
[6] = tested on: CBRC008 (line from a melanoma biopsy)
[7] = tested on: CBRC014 (line from a melanoma biopsy)
[8] = tested on: CBRC016 (line from a melanoma biopsy)
[9] = tested on: CBRC017 (line from a melanoma biopsy)
[10] = tested on: CBRC034 (line from a melanoma biopsy)
[11] = tested on: COLO792
[12] = tested on: COLO800
[13] = tested on: COLO829
[14] = tested on: G361
[15] = tested on: IPC-298
[16] = tested on: IST-MEL1
[17] = tested on: LB2518-MEL
[18] = tested on: LOXIMVI
[19] = tested on: MEL-HO

Row | Structure (SMILES) | cleaved PARP positive nuclei fraction [1] [%] | cleaved PARP positive nuclei fraction [2] [%] | cleaved PARP positive nuclei fraction [3] [%] | cleaved PARP positive nuclei fraction [4] [%] | cleaved PARP positive nuclei fraction [5] [%] | cleaved PARP positive nuclei fraction [6] [%] | cleaved PARP positive nuclei fraction [7] [%] | cleaved PARP positive nuclei fraction [8] [%] | cleaved PARP positive nuclei fraction [9] [%] | cleaved PARP positive nuclei fraction [10] [%] | cleaved PARP positive nuclei fraction [11] [%] | cleaved PARP positive nuclei fraction [12] [%] | cleaved PARP positive nuclei fraction [13] [%] | cleaved PARP positive nuclei fraction [14] [%] | cleaved PARP positive nuclei fraction [15] [%] | cleaved PARP positive nuclei fraction [16] [%] | cleaved PARP positive nuclei fraction [17] [%] | cleaved PARP positive nuclei fraction [18] [%] | cleaved PARP positive nuclei fraction [19] [%]
1 | NC(=O)c1ccc(N(C(N)=O)c2c(F)cccc2F)nc1-c1ccc(F)cc1F + COc1ccc(C2=N[C@@H](c3ccc(Cl)cc3)[C@@H](c3ccc(Cl)cc3)N2C(=O)N2CCNC(=O)C2)c(OC(C)C)c1 [Nutlin-3] (first compound 0.4 µM, partner dose 0.1 µM) | 75.6 | 48.8 | 63.8 | 67.7 | 81.9 | 70.4 | 86.2 | 93.6 | 70.5 | 66.3 | 56.6 | 79.5 | 83.6 | 133 | 44.3 | 125 | 213 | 27.3 | 58.3
2 | Cn1sc(=O)n(Cc2ccccc2)c1=O + CCCCCCCCc1ccc(CCC(N)(CO)CO)cc1 [fingolimod] (first compound 0.4 µM, partner dose 2 µM) | 93.8 | 21.1 | 74.2 | 500 | 260 | 54.1 | 84.3 | 28.3 | 103 | 62.8 | 56.2 | 125 | 123 | 68.1 | 87.2 | 397 | 107 | 150 | 32.3
3 | C[C@]1(O)C[C@@H](c2nc(-c3ccc4ccc(-c5ccccc5)nc4c3)c3c(N)nccn32)C1 + O=C(O)[C@@H]1[O][Sb](=[O])([O][Sb]2(=[O])[O][C@H]([C@H](O)CO)[C@H](O)[C@H](C(=O)O)[O]2)[O][C@H]([C@H](O)CO)[C@@H]1O [stibogluconate] (first compound 0.4 µM, partner dose 2 µM) | 120 | 45.5 | 53.7 | 451 | 70 | 138 | 100 | 75.5 | 66.3 | 46 | 63 | 60 | 73 | 109 | 60 | 62.6 | 125 | 125 | 40.2
4 | NC(=O)c1ccc(N(C(N)=O)c2c(F)cccc2F)nc1-c1ccc(F)cc1F + Nc1cccc2c1CN(C1CCC(=O)NC1=O)C2=O [lenalidomide] (first compound 0.4 µM, partner dose 1 µM) | 98.4 | 177 | 118 | 62.7 | 85.2 | 33.7 | 86.3 | 38.9 | 81.5 | 101 | 57.1 | 47.7 | 191 | 60.9 | 43.5 | 64.8 | 106 | 65.5 | 130
5 | COc1ccc(C2=N[C@@H](c3ccc(Cl)cc3)[C@@H](c3ccc(Cl)cc3)N2C(=O)N2CCNC(=O)C2)c(OC(C)C)c1 [Nutlin-3] + Cn1c(Nc2ccc(C(F)(F)F)cc2)nc2cc(Oc3ccnc(-c4ncc(C(F)(F)F)[nH]4)c3)ccc21 [CHIR265] (first compound 0.1 µM, partner dose 0.08 µM) | 99.6 | 81.4 | 138 | 279 | 81.1 | 89 | 101 | 204 | 182 | 80.3 | 35.2 | 122 | 83.9 | 172 | 190 | 33.6 | 675 | 167 | 240
6 | CCCCCCCCc1ccc(CCC(N)(CO)CO)cc1 [fingolimod] + CC(C)C[C@H](NC(=O)[C@H](Cc1ccccc1)NC(=O)c1cnccn1)B(O)O [Bortezomib] (first compound 2 µM, partner dose 0.001 µM) | 1160 | 178 | 62.6 | 388 | 82.2 | 159 | 195 | 96.2 | 230 | 43.3 | 103 | 114 | 167 | 602 | 47.8 | 59.9 | 181 | 108 | 32.3
7 | NC1(c2ccc(-c3nc4ccn5c(=O)[nH]nc5c4cc3-c3ccccc3)cc2)CCC1 + CO[C@H]1C[C@@H]2CC[C@@H](C)[C@@](O)(O2)C(=O)C(=O)N2CCCC[C@H]2C(=O)O[C@H]([C@H](C)C[C@@H]2CC[C@@H](OCCO)[C@H](OC)C2)CC(=O)[C@H](C)/C=C(\C)[C@@H](O)[C@@H](OC)C(=O)[C@H](C)C[C@H](C)/C=C/C=C/C=C/1C [everolimus] (first compound 0.4 µM, partner dose 0.02 µM) | 207 | 64.6 | 140 | 733 | 358 | 270 | 185 | 154 | 115 | 58.6 | 491 | 76.3 | 154 | 223 | 80.7 | 40.2 | 183 | 161 | 50.1
8 | NC(=O)c1ccc(N(C(N)=O)c2c(F)cccc2F)nc1-c1ccc(F)cc1F + Cn1c(Nc2ccc(C(F)(F)F)cc2)nc2cc(Oc3ccnc(-c4ncc(C(F)(F)F)[nH]4)c3)ccc21 [CHIR265] (first compound 0.4 µM, partner dose 0.08 µM) | 74.3 | 126 | 93.1 | 149 | 177 | 31.3 | 204 | 136 | 89.6 | 41 | 167 | 197 | 115 | 124 | 189 | 123 | 72.6 | 131 | 111
9 | C[C@@H](N)c1ccc(C(=O)Nc2ccnc3[nH]ccc23)cc1 + CN1CCN(c2ccc3nc(-c4c(N)c5c(F)cccc5[nH]c4=O)[nH]c3c2)CC1 [Dovitinib] (first compound 0.4 µM, partner dose 0.1 µM) | 119 | 136 | 111 | 192 | 90.6 | 103 | 90.4 | 130 | 136 | 444 | 155 | 48.9 | 66.6 | 76.7 | 45.6 | 59.9 | 99.2 | 110 | 66.4
10 | COc1ccc(C2=N[C@@H](c3ccc(Cl)cc3)[C@@H](c3ccc(Cl)cc3)N2C(=O)N2CCNC(=O)C2)c(OC(C)C)c1 [Nutlin-3] + Cc1cc(Nc2cc(N3CCN(C)CC3)nc(/C=C/c3ccccc3)n2)n[nH]1 [ENMD2076] (first compound 0.1 µM, partner dose 0.04 µM) | 71.5 | 48.8 | 46.2 | 101 | 83.5 | 75.2 | 85.4 | 121 | 90.1 | 97.9 | 51.2 | 132 | 85.7 | 92.6 | 285 | 67.9 | 63.9 | 190 | 145
11 | CCN(CC)CCNC(=O)c1c(C)[nH]c(/C=C2\C(=O)Nc3ccc(F)cc32)c1C [sunitinib] + Nc1cccc2c1CN(C1CCC(=O)NC1=O)C2=O [lenalidomide] (first compound 0.4 µM, partner dose 1 µM) | 92.9 | 114 | 99.5 | 140 | 89.7 | 138 | 98.3 | 39.4 | 93.7 | 78.4 | 321 | 93.2 | 122 | 142 | 41.8 | 132 | 109 | 57.3 | 64.6
12 | Cn1sc(=O)n(Cc2ccccc2)c1=O + CC(C)C[C@H](NC(=O)[C@H](Cc1ccccc1)NC(=O)c1cnccn1)B(O)O [Bortezomib] (first compound 0.4 µM, partner dose 0.001 µM) | 121 | 78 | 143 | 147 | 42.5 | 618 | 133 | 41.3 | 133 | 71.5 | 65.4 | 109 | 98.2 | 178 | 62.5 | 121 | 77.6 | 150 | 41.2
13 | CC(=O)O[C@@]12CO[C@@H]1C[C@H](O)[C@@]1(C)C(=O)[C@H](O)C3=C(C)[C@@H](OC(=O)[C@H](O)[C@@H](NC(=O)OC(C)(C)C)c4ccccc4)C[C@@](O)([C@@H](OC(=O)c4ccccc4)[C@H]21)C3(C)C [Docetaxel] + CO[C@H]1C[C@@H]2CC[C@@H](C)[C@@](O)(O2)C(=O)C(=O)N2CCCC[C@H]2C(=O)O[C@H]([C@H](C)C[C@@H]2CC[C@@H](OCCO)[C@H](OC)C2)CC(=O)[C@H](C)/C=C(\C)[C@@H](O)[C@@H](OC)C(=O)[C@H](C)C[C@H](C)/C=C/C=C/C=C/1C [everolimus] (first compound 0.0001 µM, partner dose 0.02 µM) | 3590 | 142 | 2670 | 4640 | 439 | 504 | 168 | 389 | 168 | 107 | 584 | 91.9 | 419 | 774 | 283 | 103 | 80.4 | 149 | 355
14 | Cn1cnc2c(F)c(Nc3ccc(Br)cc3Cl)c(C(=O)NOCCO)cc21 [selumetinib] + Nc1ncn([C@H]2C[C@H](O)[C@@H](CO)O2)c(=O)n1 [decitabine] (first compound 0.015 µM, partner dose 0.1 µM) | 1010 | 109 | 69.5 | 303 | 80.3 | 268 | 78 | 218 | 150 | 127 | 223 | 97.3 | 129 | 147 | 152 | 236 | 191 | 111 | 229
15 | NC(=O)c1ccc(N(C(N)=O)c2c(F)cccc2F)nc1-c1ccc(F)cc1F + C[C@@H](Oc1cc(-c2cnn(C3CCNCC3)c2)cnc1N)c1c(Cl)ccc(F)c1Cl [Crizotinib] (first compound 0.4 µM, partner dose 0.2 µM) | 152 | 175 | 188 | 176 | 84.5 | 77.4 | 84.8 | 99.7 | 96.7 | 179 | 68.6 | 43.3 | 103 | 83.3 | 43.3 | 62.8 | 113 | 54.8 | 109
16 | CCN(CC)CCNC(=O)c1c(C)[nH]c(/C=C2\C(=O)Nc3ccc(F)cc32)c1C [sunitinib] + Nc1nc(F)nc2c1ncn2[C@@H]1O[C@H](CO)[C@@H](O)[C@@H]1O [fludarabine] (first compound 0.4 µM, partner dose 0.2 µM) | 16600 | 147 | 72.3 | 1890 | 282 | 104 | 89.6 | 147 | 98.5 | 142 | 125 | 121 | 55.4 | 225 | 90.7 | 121 | 206 | 43 | 178

An excerpt of these results, in CSV form.
Row,Structure (SMILES),cleaved PARP positive nuclei fraction [1] [%],cleaved PARP positive nuclei fraction [2] [%],cleaved PARP positive nuclei fraction [3] [%],cleaved PARP positive nuclei fraction [4] [%],cleaved PARP positive nuclei fraction [5] [%],cleaved PARP positive nuclei fraction [6] [%],cleaved PARP positive nuclei fraction [7] [%],cleaved PARP positive nuclei fraction [8] [%],cleaved PARP positive nuclei fraction [9] [%],cleaved PARP positive nuclei fraction [10] [%],cleaved PARP positive nuclei fraction [11] [%],cleaved PARP positive nuclei fraction [12] [%],cleaved PARP positive nuclei fraction [13] [%],cleaved PARP positive nuclei fraction [14] [%],cleaved PARP positive nuclei fraction [15] [%],cleaved PARP positive nuclei fraction [16] [%],cleaved PARP positive nuclei fraction [17] [%],cleaved PARP positive nuclei fraction [18] [%],cleaved PARP positive nuclei fraction [19] [%]
13,"CC(=O)O[C@@]12CO[C@@H]1C[C@H](O)[C@@]1(C)C(=O)[C@H](O)C3=C(C)[C@@H](OC(=O)[C@H](O)[C@@H](NC(=O)OC(C)(C)C)c4ccccc4)C[C@@](O)([C@@H](OC(=O)c4ccccc4)[C@H]21)C3(C)C [Docetaxel] + CO[C@H]1C[C@@H]2CC[C@@H](C)[C@@](O)(O2)C(=O)C(=O)N2CCCC[C@H]2C(=O)O[C@H]([C@H](C)C[C@@H]2CC[C@@H](OCCO)[C@H](OC)C2)CC(=O)[C@H](C)/C=C(\C)[C@@H](O)[C@@H](OC)C(=O)[C@H](C)C[C@H](C)/C=C/C=C/C=C/1C [everolimus] (first compound 0.0001 µM, partner dose 0.02 µM)",3590,142,2670,4640,439,504,168,389,168,107,584,91.9,419,774,283,103,80.4,149,355
14,"Cn1cnc2c(F)c(Nc3ccc(Br)cc3Cl)c(C(=O)NOCCO)cc21 [selumetinib] + Nc1ncn([C@H]2C[C@H](O)[C@@H](CO)O2)c(=O)n1 [decitabine] (first compound 0.015 µM, partner dose 0.1 µM)",1010,109,69.5,303,80.3,268,78,218,150,127,223,97.3,129,147,152,236,191,111,229
